According to patent US20240067720A1 (SHANGHAI JUNSHI BIOSCIENCES, published 2024):
Substitutions are numbered along the chain they refer to. No constants are given. Whether binding was seen depends on the method and setting. Some binding calls cover weakened binding; strength is not graded here. One block for each binder: values may come before it.

Target: Cyno TIGIT-Fc (cynomolgus)
Assay: SPR Biacore T200

binding: binds
B1: humanized anti-TIGIT monoclonal antibody hu20 (antibody, human IgG4 S228P, kappa, V domains shown)
VH: QVQLVQSGAEVKKPGASVKVSCKTSGYAFTEYTMHWVRQAPGKGLEWMGGINPNTGGTTYNQKFQGRVTLTVDKSSSTAYMELSSLRSEDTVVYYCAKLLRLMYYFDYWGQGTLVTVSS
VL: DIQMTQSPSSLSASVGDRVTITCQASQDVRTAVAWYQQKPGKAPKLLIYSASYRYTGVPSRFSGSGSGTDFTFTISSLQPEDIATYYCHQHYITPWTFGGGTKVEIKR

binding: binds
B2: humanized anti-TIGIT antibody hu3 (antibody, human IgG4 S228P, kappa, V domains shown)
VH: B1 VH with K43Q, S85R, E89D
VL: DIVMTQSPDSLAVSLGERATINCKASQDVRTAVAWYQQKPGQPPKLLIYSASYRYTGVPDRFSGSGSGTDFTLTISSLQAEDVAVYYCHQHYITPWTFGGGTKVEIKR
